Measured values as given in patent publication US20210363214A1 (University of Washington, published 2021).
No constants are given. Whether binding was seen depends on the method and setting. Some results given as binding are weak or reduced against the parent protein; the word gives no strength.

Assays:
[1] = target: TMHC2_E (elongated); experiment: crystal structure; homodimer
[2] = target: TMHC2_E (elongated); experiment: crystal structure at 2.95 A; homodimer
[3] = target: TMHC2_E (elongated); experiment: SDS-PAGE of purified protein; self-association
[4] = target: TMHC2_E (elongated); experiment: AUC in detergent solution (C8E5); self-association to homodimer
[5] = target: TMHC2_E (elongated); experiment: AUC sedimentation equilibrium at three rotor speeds; self-association to homodimer
[6] = target: TMHC4_R; experiment: crystal structure at 3.9 A; homotetramer
[7] = target: TMHC4_R; experiment: AUC in detergent solution; self-association to homotetramer

Measured: binding

B1: TMHC2_E (elongated) (designed binder, not shown: small tags and cut ends)
chain: MTRTEIIRELERSLRLQLVLAIFLLALLIVLLWLLQQLKELLRELERLQREGSSDEDVRELLREIKELVENIVYLVIIIMVLVLVIIALAVTQKYLVEELKRQD
not listed: [6] | [7]
binds: all other assays above

B2: TMHC4_R (designed binder, not shown: small tags and cut ends)
chain: MSKDTEDSRKIWRTIMLLLVFAILLSAIIWYQITTNPDTSQIATLLSMQLLLIALMLVVIALLLSRQTEQVAESIRRDVSALAYVMLGLLLSLLNRLSLAAEAYKKAIELDPNDALAWLLLGSVLEKLKRLDEAAEAYKKAIELKPNDASAWKELGKVLEKLGRLDEAAEAYKKAIELDPEDAEAWKELGKVLEKLGRLDEAAEAYKKAIELAND
binds: [6] | [7]
